According to patent US20250188065A1, “LIGHT-CONTROLLED BIOORTHOGONAL TETRAZINE LIGATION” (The Regents of the University Of California, priority 2020, published 2025):

Legend:
[1] = Light-triggered decaging of photocaged dihydrotetrazine to tetrazine (HPLC); assay type: physicochemical; conditions: 37° C.
[2] = Dual activation: light-triggered release of doxorubicin from TCO-Dox in PBS (HPLC-MS); conditions: 1a 8 μM + TCO-Dox 3c 5.5 μM, PBS 0.1% DMSO, 37° C., after 24 hours

1c: five-amino-acid peptide containing photocaged dihydrotetrazine, obtained by SPPS from 1b; peptide sequence LKKGA (photocaged dihydrotetrazine modification)
tetrazine-peptide 2c formed, yield ([1]; 1c 10 μM, LED irradiation 2 minutes, PBS): 96%

C#CCCC1=NNC(c2ccccc2)=NN1C(=O)OC(C)c1ccccc1[N+](=O)[O-] (stereo not shown) [1a, 1-(2-nitrophenyl)ethyl 6-(but-3-yn-1-yl)-3-phenyl-1,2,4,5-tetrazine-1(4H)-carboxylate]
conversion (decaging of photocaged dihydrotetrazine to tetrazine 2a) ([1]; visible blue light 405 nm LED (18 W), 2 minutes, PBS containing 0.1% DMSO, HPLC): 94%

COc1cccc2c1C(=O)c1c(O)c3c(c(O)c1C2=O)C[C@@](O)(C(=O)CO)C[C@@H]3O[C@H]1C[C@H](NC(=O)OC2/C=C/CCCCC2)[C@H](O)[C@H](C)O1 (stereo partly shown) [TCO-Dox 3c]
TCO-Dox 3c converted to doxorubicin ([2]; LED 405 nm 18 W 2 minutes): 91%
consumption of TCO-Dox ([2]; LED 405 nm 2 minutes): fully consumed
